{"source": "PubChem BioAssay AID445", "about": "(National Center for Advancing Translational Sciences (NCATS), 2006)", "note": "This is one part of the list. The main result of the screen is listed elsewhere. These columns were measured beside it and carry no call. Most of these compounds were active or inconclusive in the main read-out, so they are no random draw. Words in brackets tell the shape of the fitted curve; partial curves, single points and poor fits give uncertain potencies.", "data": [{"assay": "IkB Signaling", "settings": "ABC-DLBCL IkBa-CBG/CBR dual luciferase ratio (green luciferase fused to IkBa over red control in OCI-Ly3 lymphoma cells), 4 h; measured here: control luc red channel unless noted", "procedure,_shortened": "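Curves were fitted separately to fusion (green), unfused (red) and ratio luminescence, then classed by r2, magnitude and activity. Cells: OCI-Ly3, 4 h compound plus doxycycline at 37C; 10 uM MG-132 defined full response.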", "values": [{"smiles": "CCOC(=O)c1ccc2ncc(C(=O)OCC)c(Nc3ccc(C)c(Br)c3)c2c1", "AC50": "20 µM [falling, partial curve]"}, {"smiles": "CCC(C(=O)NCc1ccccc1)n1ncn2c(cc3occc32)c1=O", "note": "(stereo not drawn)", "AC50": "15.8 µM [falling, single point]"}, {"smiles": "Cc1ccc(NC(=O)c2cc3c(=O)n(Cc4cccnc4)ccc3nc2C)cc1F", "AC50": "3.98 µM [rising, partial curve]"}, {"smiles": "COc1ccc(Br)cc1CNC(=O)CN1C(=O)CSc2ccc(S(=O)(=O)N3CCOCC3)cc21", "AC50": "39.8 µM [falling, single point]"}, {"smiles": "COc1ccc(OC(C)C(=O)NCc2nc(-c3ccc(Cl)cc3)no2)cc1", "note": "(stereo not drawn)", "AC50": "15.8 µM [falling, partial curve]"}, {"smiles": "NS(=O)(=O)c1cc2c(cc1Cl)NC=NS2(=O)=O", "AC50": "15.8 µM [rising, partial curve] [measured here: IkB-luc green channel]"}, {"smiles": "COc1cc(OC)cc(C(=O)Nc2ccc(S(=O)(=O)Nc3onc(C)c3C)cc2)c1", "AC50": "20 µM [falling, single point]"}, {"smiles": "O=C(Cn1nc(C(F)(F)F)c2c1CCCC2)Nc1ccc(Cl)cc1", "AC50": "25.1 µM [falling, single point]"}, {"smiles": "CCOC(=O)c1c(C)[nH]c(CCC(=O)Nc2cc(C)cc(C)c2)c1C", "AC50": "15.8 µM [falling, partial curve]"}, {"smiles": "O=C(Cn1ccc2ccccc2c1=O)NCCC(=O)N1CCN(c2cccc(C(F)(F)F)c2)CC1", "AC50": "25.1 µM [falling, partial curve]"}, {"smiles": "O=C(NCCc1ccccc1)c1ccc(CSc2nc3ccncc3n2Cc2ccccc2)cc1", "AC50": "12.6 µM [falling, partial curve]"}, {"smiles": "CCCn1cc(S(=O)(=O)c2ccccc2)c(=O)c2cc(F)c(N3CCCC3)cc21", "AC50": "1 µM [rising, full curve]"}, {"smiles": "COCc1c(C(=O)OCC(=O)N2c3ccccc3NC(=O)C2(C)C)oc2ccccc12", "AC50": "31.6 µM [falling, single point]"}, {"smiles": "CCCn1ccc2c(OCC(=O)Nc3ccc(F)cc3F)cccc2c1=O", "AC50": "39.8 µM [falling, single point]"}, {"smiles": "O=C(Cc1cccs1)N1CCCC(c2nc(-c3ccc(S(=O)(=O)N4CCCC4)cc3)no2)C1", "note": "(stereo not drawn)", "AC50": "39.8 µM [falling, single point]"}, {"smiles": "Cc1cccc(OCC(=O)Nc2ccc3c(c2)N(C)C(=O)c2ccccc2S3)c1", "AC50": "10 µM [falling, partial curve]"}, {"smiles": "Cc1cccc(NC(=O)CSc2nc3c([nH]c4ccccc43)c(=O)n2-c2ccc(F)cc2)c1C", "AC50": "6.31 µM [falling, full curve, poor fit]"}, {"smiles": "Cc1ccc(C(=O)N/C(=C\\c2cn(S(=O)(=O)N(C)C)c3ccccc23)C(=O)NCCCn2ccnc2)cc1", "AC50": "25.1 µM [falling, partial curve]"}, {"smiles": "CCn1cc(C(=O)NC(C)c2ccccc2)c(=O)c2cc(S(=O)(=O)N3CCc4ccccc4C3)ccc21", "note": "(stereo not drawn)", "AC50": "2.51 µM [falling, full curve]"}, {"smiles": "Cc1ccc(NC(=O)Cn2cc(S(=O)(=O)N3CCCC3)c(S(=O)(=O)N3CCCC3)c2)c(C)c1", "AC50": "25.1 µM [falling, single point]"}, {"smiles": "Cc1occc1C(=O)N1CCN(c2ccc(Cl)c(Cl)c2)CC1", "AC50": "15.8 µM [falling, partial curve]"}, {"smiles": "O=C(CN(C(=O)CNC(=O)c1ccco1)c1ccc(Cl)c(Cl)c1)NC1CCCCC1", "AC50": "12.6 µM [falling, partial curve]"}, {"smiles": "O=C(NCCc1ccc(Cl)cc1)c1cccn1-c1nnc(N2CCCC2)s1", "AC50": "20 µM [falling, partial curve, poor fit]"}, {"smiles": "COc1ccc(C(=O)c2cn(CC(=O)Nc3ccc4c(c3)OCO4)c3ccc(OC)cc3c2=O)cc1", "AC50": "3.98 µM [falling, partial curve]"}, {"smiles": "CC(=O)N1c2ccccc2C(=O)C1N1CCN(c2cc(Cl)ccc2C)CC1", "note": "(stereo not drawn)", "AC50": "25.1 µM [falling, single point]"}, {"smiles": "CC(=O)c1ccc(N2CCN(S(=O)(=O)c3ccc4[nH]c5c(c4c3)CCCCC5)CC2)cc1", "AC50": "5.01 µM [falling, partial curve]"}, {"smiles": "O=C(COc1ccc(S(=O)(=O)N2CCOCC2)cc1)Nc1ccc(Cl)c(C(F)(F)F)c1", "AC50": "31.6 µM [falling, single point]"}, {"smiles": "Cn1c(-n2c(CCN3C(=O)c4ccccc4C3=O)nc3ccccc3c2=O)nc2ccccc21", "AC50": "10 µM [falling, partial curve]"}, {"smiles": "CCC1CN(C(=O)N2CCC(C(=O)N(C)Cc3ccccc3)CC2)c2ccccc2O1", "note": "(stereo not drawn)", "AC50": "15.8 µM [falling, single point]"}, {"smiles": "Cc1ccc2nc(CN3CCN(C(=O)Nc4cccc(C)c4C)CC3)oc2c1", "AC50": "31.6 µM [falling, single point]"}, {"smiles": "COC(=O)c1scc(-c2ccc(C)cc2)c1S(=O)(=O)Nc1c(C)cc(C)cc1C", "AC50": "10 µM [falling, partial curve]"}, {"smiles": "COc1ccc(NC(=O)CN2C(=O)CC(c3ccco3)Sc3ccccc32)cc1OC", "note": "(stereo not drawn)", "AC50": "10 µM [falling, partial curve]"}, {"smiles": "Cc1ccc(-n2ncc(C(=O)NCCCN3CCc4ccccc4C3)c2C2CCN(C(=O)OC(C)(C)C)CC2)cc1C", "AC50": "15.8 µM [falling, partial curve]"}, {"smiles": "CC(CNC(=O)CN1C(=O)COc2ccc(S(=O)(=O)N3CCCCC3)cc21)c1ccccc1", "note": "(stereo not drawn)", "AC50": "39.8 µM [falling, single point]"}, {"smiles": "O=C(Nc1ccc(Cl)cc1)C1CCN(S(=O)(=O)c2ccc(Br)s2)CC1", "AC50": "20 µM [falling, partial curve]"}, {"smiles": "Cc1ccccc1C(=O)Nc1ccc(C(=O)OCc2cc(=O)n3nc(C4CC4)sc3n2)cc1", "AC50": "10 µM [falling, partial curve]"}, {"smiles": "CC1(C)Cc2cccc(OCC(=O)N3CCN(S(=O)(=O)c4ccc(F)cc4)CC3)c2O1", "AC50": "39.8 µM [falling, single point]"}, {"smiles": "CC1CN(C(=O)Nc2ccc(C(=O)NCCc3ccccc3Cl)cc2)c2ccccc2S1", "note": "(stereo not drawn)", "AC50": "10 µM [falling, partial curve]"}]}]}
